This test deals with Candida albicans MTU 12021. Briefly: Agar dilution MIC, single and combined use. Format: cell-based. The following applies: Sabouraud agar, 37° C., 48 hours. As to the method: (1) The effects of the combined use of Compound 1 with various imidazole antifungal agents against Candida albicans MTU 12021 strain were examined as follows. […] Then, distilled water containing 0.1% by weight of Tween 80 was added thereto to obtain drug solutions having a concentration of from 1 to 1,000 μg/ml.
1 ml of each drug solution diluted twice was introduced into a sterilized Petri dish, and 8 ml of Sabouraud agar medium was added to prepare a agar plate. Thus, a series of agar plates for the combinations having various concentrations were prepared.
Candida albicans MTU 12021 strain cultured on a Sabouraud agar medium for 24 hours, was suspended in a saline, and a cells suspension having a concentration of 2×10^6 spores/ml was prepared by counting the number of spores by a hemacytometer. Then, 50 μl of the cells suspension was inoculated to the above agar plates by means of a microplanter (manufactured by Sakuma Seisakusho). The inoculated agar plates were cultured at 37° C. for 48 hours, whereupon the presence or absence of the growth of the strain was examined.
Culture medium: Sabouraud agar medium
Culturing condition: 37° C. for 48 hours
Strain used: Candida albicans MTU 12021

SMILES strings stand for the structures.

In the case of `Clc1ccc(CO/N=C(\Cn2ccnc2)c2ccc(Cl)cc2Cl)c(Cl)c1` [oxiconazole], the MIC (Candida albicans, MTU12021, single use, read-out: Minimum Inhibitory Concentration (MIC)) was found to be 100 µg/mL. In addition, the “Minimum Inhibitory Concentration (MIC) of the agent combined with Compound 1” value (combined with Compound 1 at 100 μg/ml) was determined as 6.25 µg/mL.

For the origin of these results see patent publication US5120735A, “Antifungal composition” (Kaken Pharmaceutical Co., Ltd., priority 1987, dated 1992).
